PubChem BioAssay AID1508588 – Peter MacCallum Cancer Centre – 2020

- Assay: 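Which gene losses make BRAF-mutant melanoma cells more responsive to vemurafenib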 (primary screen)
- Cell system: human WM266.4 melanoma cells (BRAF V600 mutant)
- Reagents: siRNA pool against human genes, 40 nM
- Time to read-out: 96 h from transfection to read-out
- Challenge: vemurafenib 300 nM (about IC25), added 48 h after transfection, for 48 h; comparison arm got DMSO vehicle only
- Detection: 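Cell gain (DAPI nuclei at end minus before drug, mean of two replicates) and medium lactate by absorbance per cell, both as ratio to non-targeting siRNA, also grouped into fold-change classes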
- Reading the numbers: cell gain with vemurafenib: higher = more cell gain than with non-targeting siRNA; lactate per cell with vemurafenib: higher = more lactate made per cell
- Call rule: 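a knock-down counts as enhancing when its fold-change classes with vehicle and with vemurafenib, taken together, show a stronger drug effect on cell gain or lactate per cell; exact class pairs not stated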
- Meaning of the calls: active = enhances vemurafenib effect; inactive = no enhancement seen
Shown is an unselected part of about 18,000 reagents tested. 790 of them (4.4%) were called active. 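Calls rest on a combination of fold-change classes in drug and vehicle arms, not all shown here.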 Unmarked entries are inactive.

gene | cell gain with vemurafenib | lactate per cell with vemurafenib
USP51 | 0.6 | 0.82
GCFC2 | 0.89 | 0.77
AGBL1 | 0.42 | 0.64
CXorf38 | 0.75 | 1.12
CAMK1G | 0.92 | 0.52
PCDHAC2 | 0.46 | 1.75
TTC22 | 0.27 | 2.41
E2F6 | 1.18 | 0.57
ACTL10 | 0.01 | 1.94
MBD3L1 | 0.64 | 1.5
SYNC | -0.02 | 2.07
TTBK1 | 0.88 | 0.68
OR2T2 | 0.18 | 1.54
C1orf198 | 0.38 | 0.89
FYB1 | 0.91 | 0.63
CCNL2 | 0.99 | 0.94
ELOVL6 | 0.59 | 1.25
ARIH2 | 0.92 | 0.8
METTL2B | 0.72 | 0.86
DNAI7 | 0.6 | 0.84
TNFSF14 | 1.29 | 0.88
PRSS3 | 0.78 | 0.87
OGFRL1 | 0.69 | 1.16
SFTPB | 0.65 | 0.64
LGALS3BP | 0.32 | 1
DDX23 | 0.26 | 1.51
CDY2B | 0.33 | 1.4
FBL | 0.14 | 0.66
LARS1 | 0.53 | 0.91
VCAN | 0.44 | 1.15
ALDOC | 0.27 | 1.52
APBA3 | 0.22 | 2.15
UBE3B | 0.62 | 1.03
SLC16A11 | 0.62 | 1.72
MSN | 1.16 | 0.64
ZNF623 | 0.47 | 0.98
FCRLB | 1.1 | 1.07
DDX42 | 0.05 | 1.39
PPP2R5A | 0.65 | 0.99
SLC25A11 | 0.34 | 0.76
OR9A4 | 0.34 | 1.26
GSR | 0.45 (active) | 0.68
ZSCAN1 | 0.84 | 0.9
PIK3AP1 | 0.57 | 0.62
SYNM | 0.58 | 0.9
OSTM1 | 0.04 | 2.31
CDC42EP3 | 0.52 | 1.27
EEF2K | -0.08 | 2.98
CCDC172 | 0.57 | 1.26
EIF4ENIF1 | 0.78 | 1.05
GDF7 | 0.56 | 0.7
PCDHGA8 | 0.53 | 1.75
OR51I1 | 0.13 | 1.19
ZSCAN10 | 0.26 | 0.76
TSPAN31 | 0.8 | 0.55
RNF135 | 1.03 | 0.85
CD226 | 0.59 | 0.93
ZNF25 | 0.58 | 0.5
GAL3ST1 | 0.9 | 0.54
ISX | 0.6 | 0.7
MPV17L2 | 0.84 | 1.12
TIMM22 | 0.9 | 0.68
TNS2 | 0.16 | 1.54
TLCD3B | 0.43 | 2.04
ABCA10 | 0.82 | 0.67
DLL3 | 0.23 (active) | 0.44
KAT7 | 0.19 | 1.48
TMEM41A | 0.64 | 0.89
SLC12A8 | 0.77 | 0.9
S100B | 1.16 | 0.88
MAPRE2 | 0.52 | 0.68
SYNGR1 | 0.18 | 2.9
PRTFDC1 | 0.4 | 1.04
TSPY3 | 0.63 | 1.83
COA4 | 0.39 | 1.58
PWP1 | 0.6 | 0.93
PPP1R1C | 0.74 | 0.4
BAIAP2 | 1.19 | 1.5
TIGD6 | 0.8 | 1.43
FOXD4L6 | 0.86 | 0.6
ACSL6 | 0.79 | 0.93
HCRTR2 | 0.47 | 1.04
SMC5 | -0.08 | 1.67
KRT20 | 0.3 | 1.66

In a second layout: results already given.
| gene | cell gain with vemurafenib | lactate per cell with vemurafenib |
| --- | --- | --- |
| CCDC172 | 0.57 | 1.26 |
| EIF4ENIF1 | 0.78 | 1.05 |
| GDF7 | 0.56 | 0.7 |
| PCDHGA8 | 0.53 | 1.75 |
| OR51I1 | 0.13 | 1.19 |
| ZSCAN10 | 0.26 | 0.76 |
| TSPAN31 | 0.8 | 0.55 |
| RNF135 | 1.03 | 0.85 |
| CD226 | 0.59 | 0.93 |
